Measured values published in the supplement of paper PMC10849652.
Some of the results follow.

By UniProt entry, the sequences of proteins in these tests, tags left out. Where a name states a change or a piece, a line headed by the entry shows the natural chain unless it says otherwise.
UniProt P63167, whole entry, looked up: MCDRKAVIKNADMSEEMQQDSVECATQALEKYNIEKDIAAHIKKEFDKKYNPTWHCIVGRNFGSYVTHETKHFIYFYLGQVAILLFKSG
UniProt O75061: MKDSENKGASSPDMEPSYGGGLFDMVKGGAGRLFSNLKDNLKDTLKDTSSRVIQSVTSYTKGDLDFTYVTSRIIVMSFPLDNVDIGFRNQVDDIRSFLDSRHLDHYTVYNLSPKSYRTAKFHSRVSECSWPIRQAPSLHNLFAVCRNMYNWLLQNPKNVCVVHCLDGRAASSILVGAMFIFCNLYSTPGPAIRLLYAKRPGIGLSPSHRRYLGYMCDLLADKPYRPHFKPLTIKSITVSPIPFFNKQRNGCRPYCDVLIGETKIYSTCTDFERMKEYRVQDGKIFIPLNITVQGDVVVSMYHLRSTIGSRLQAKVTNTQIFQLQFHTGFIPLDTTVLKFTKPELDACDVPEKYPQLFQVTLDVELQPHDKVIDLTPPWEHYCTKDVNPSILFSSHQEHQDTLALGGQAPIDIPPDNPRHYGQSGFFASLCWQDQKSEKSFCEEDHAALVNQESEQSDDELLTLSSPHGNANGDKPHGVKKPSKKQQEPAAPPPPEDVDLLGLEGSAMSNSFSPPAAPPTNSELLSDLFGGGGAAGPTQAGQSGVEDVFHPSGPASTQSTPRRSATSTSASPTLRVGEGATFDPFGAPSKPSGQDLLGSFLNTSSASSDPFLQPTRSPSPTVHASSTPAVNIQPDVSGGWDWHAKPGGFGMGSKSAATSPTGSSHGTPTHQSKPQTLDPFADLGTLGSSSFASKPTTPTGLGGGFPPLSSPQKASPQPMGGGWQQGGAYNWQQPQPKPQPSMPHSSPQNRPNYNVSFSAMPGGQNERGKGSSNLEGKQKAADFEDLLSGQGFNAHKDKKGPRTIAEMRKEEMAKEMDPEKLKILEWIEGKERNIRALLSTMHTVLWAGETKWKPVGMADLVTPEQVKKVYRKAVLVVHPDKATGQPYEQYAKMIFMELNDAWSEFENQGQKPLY
UniProt Q14204, whole entry, looked up: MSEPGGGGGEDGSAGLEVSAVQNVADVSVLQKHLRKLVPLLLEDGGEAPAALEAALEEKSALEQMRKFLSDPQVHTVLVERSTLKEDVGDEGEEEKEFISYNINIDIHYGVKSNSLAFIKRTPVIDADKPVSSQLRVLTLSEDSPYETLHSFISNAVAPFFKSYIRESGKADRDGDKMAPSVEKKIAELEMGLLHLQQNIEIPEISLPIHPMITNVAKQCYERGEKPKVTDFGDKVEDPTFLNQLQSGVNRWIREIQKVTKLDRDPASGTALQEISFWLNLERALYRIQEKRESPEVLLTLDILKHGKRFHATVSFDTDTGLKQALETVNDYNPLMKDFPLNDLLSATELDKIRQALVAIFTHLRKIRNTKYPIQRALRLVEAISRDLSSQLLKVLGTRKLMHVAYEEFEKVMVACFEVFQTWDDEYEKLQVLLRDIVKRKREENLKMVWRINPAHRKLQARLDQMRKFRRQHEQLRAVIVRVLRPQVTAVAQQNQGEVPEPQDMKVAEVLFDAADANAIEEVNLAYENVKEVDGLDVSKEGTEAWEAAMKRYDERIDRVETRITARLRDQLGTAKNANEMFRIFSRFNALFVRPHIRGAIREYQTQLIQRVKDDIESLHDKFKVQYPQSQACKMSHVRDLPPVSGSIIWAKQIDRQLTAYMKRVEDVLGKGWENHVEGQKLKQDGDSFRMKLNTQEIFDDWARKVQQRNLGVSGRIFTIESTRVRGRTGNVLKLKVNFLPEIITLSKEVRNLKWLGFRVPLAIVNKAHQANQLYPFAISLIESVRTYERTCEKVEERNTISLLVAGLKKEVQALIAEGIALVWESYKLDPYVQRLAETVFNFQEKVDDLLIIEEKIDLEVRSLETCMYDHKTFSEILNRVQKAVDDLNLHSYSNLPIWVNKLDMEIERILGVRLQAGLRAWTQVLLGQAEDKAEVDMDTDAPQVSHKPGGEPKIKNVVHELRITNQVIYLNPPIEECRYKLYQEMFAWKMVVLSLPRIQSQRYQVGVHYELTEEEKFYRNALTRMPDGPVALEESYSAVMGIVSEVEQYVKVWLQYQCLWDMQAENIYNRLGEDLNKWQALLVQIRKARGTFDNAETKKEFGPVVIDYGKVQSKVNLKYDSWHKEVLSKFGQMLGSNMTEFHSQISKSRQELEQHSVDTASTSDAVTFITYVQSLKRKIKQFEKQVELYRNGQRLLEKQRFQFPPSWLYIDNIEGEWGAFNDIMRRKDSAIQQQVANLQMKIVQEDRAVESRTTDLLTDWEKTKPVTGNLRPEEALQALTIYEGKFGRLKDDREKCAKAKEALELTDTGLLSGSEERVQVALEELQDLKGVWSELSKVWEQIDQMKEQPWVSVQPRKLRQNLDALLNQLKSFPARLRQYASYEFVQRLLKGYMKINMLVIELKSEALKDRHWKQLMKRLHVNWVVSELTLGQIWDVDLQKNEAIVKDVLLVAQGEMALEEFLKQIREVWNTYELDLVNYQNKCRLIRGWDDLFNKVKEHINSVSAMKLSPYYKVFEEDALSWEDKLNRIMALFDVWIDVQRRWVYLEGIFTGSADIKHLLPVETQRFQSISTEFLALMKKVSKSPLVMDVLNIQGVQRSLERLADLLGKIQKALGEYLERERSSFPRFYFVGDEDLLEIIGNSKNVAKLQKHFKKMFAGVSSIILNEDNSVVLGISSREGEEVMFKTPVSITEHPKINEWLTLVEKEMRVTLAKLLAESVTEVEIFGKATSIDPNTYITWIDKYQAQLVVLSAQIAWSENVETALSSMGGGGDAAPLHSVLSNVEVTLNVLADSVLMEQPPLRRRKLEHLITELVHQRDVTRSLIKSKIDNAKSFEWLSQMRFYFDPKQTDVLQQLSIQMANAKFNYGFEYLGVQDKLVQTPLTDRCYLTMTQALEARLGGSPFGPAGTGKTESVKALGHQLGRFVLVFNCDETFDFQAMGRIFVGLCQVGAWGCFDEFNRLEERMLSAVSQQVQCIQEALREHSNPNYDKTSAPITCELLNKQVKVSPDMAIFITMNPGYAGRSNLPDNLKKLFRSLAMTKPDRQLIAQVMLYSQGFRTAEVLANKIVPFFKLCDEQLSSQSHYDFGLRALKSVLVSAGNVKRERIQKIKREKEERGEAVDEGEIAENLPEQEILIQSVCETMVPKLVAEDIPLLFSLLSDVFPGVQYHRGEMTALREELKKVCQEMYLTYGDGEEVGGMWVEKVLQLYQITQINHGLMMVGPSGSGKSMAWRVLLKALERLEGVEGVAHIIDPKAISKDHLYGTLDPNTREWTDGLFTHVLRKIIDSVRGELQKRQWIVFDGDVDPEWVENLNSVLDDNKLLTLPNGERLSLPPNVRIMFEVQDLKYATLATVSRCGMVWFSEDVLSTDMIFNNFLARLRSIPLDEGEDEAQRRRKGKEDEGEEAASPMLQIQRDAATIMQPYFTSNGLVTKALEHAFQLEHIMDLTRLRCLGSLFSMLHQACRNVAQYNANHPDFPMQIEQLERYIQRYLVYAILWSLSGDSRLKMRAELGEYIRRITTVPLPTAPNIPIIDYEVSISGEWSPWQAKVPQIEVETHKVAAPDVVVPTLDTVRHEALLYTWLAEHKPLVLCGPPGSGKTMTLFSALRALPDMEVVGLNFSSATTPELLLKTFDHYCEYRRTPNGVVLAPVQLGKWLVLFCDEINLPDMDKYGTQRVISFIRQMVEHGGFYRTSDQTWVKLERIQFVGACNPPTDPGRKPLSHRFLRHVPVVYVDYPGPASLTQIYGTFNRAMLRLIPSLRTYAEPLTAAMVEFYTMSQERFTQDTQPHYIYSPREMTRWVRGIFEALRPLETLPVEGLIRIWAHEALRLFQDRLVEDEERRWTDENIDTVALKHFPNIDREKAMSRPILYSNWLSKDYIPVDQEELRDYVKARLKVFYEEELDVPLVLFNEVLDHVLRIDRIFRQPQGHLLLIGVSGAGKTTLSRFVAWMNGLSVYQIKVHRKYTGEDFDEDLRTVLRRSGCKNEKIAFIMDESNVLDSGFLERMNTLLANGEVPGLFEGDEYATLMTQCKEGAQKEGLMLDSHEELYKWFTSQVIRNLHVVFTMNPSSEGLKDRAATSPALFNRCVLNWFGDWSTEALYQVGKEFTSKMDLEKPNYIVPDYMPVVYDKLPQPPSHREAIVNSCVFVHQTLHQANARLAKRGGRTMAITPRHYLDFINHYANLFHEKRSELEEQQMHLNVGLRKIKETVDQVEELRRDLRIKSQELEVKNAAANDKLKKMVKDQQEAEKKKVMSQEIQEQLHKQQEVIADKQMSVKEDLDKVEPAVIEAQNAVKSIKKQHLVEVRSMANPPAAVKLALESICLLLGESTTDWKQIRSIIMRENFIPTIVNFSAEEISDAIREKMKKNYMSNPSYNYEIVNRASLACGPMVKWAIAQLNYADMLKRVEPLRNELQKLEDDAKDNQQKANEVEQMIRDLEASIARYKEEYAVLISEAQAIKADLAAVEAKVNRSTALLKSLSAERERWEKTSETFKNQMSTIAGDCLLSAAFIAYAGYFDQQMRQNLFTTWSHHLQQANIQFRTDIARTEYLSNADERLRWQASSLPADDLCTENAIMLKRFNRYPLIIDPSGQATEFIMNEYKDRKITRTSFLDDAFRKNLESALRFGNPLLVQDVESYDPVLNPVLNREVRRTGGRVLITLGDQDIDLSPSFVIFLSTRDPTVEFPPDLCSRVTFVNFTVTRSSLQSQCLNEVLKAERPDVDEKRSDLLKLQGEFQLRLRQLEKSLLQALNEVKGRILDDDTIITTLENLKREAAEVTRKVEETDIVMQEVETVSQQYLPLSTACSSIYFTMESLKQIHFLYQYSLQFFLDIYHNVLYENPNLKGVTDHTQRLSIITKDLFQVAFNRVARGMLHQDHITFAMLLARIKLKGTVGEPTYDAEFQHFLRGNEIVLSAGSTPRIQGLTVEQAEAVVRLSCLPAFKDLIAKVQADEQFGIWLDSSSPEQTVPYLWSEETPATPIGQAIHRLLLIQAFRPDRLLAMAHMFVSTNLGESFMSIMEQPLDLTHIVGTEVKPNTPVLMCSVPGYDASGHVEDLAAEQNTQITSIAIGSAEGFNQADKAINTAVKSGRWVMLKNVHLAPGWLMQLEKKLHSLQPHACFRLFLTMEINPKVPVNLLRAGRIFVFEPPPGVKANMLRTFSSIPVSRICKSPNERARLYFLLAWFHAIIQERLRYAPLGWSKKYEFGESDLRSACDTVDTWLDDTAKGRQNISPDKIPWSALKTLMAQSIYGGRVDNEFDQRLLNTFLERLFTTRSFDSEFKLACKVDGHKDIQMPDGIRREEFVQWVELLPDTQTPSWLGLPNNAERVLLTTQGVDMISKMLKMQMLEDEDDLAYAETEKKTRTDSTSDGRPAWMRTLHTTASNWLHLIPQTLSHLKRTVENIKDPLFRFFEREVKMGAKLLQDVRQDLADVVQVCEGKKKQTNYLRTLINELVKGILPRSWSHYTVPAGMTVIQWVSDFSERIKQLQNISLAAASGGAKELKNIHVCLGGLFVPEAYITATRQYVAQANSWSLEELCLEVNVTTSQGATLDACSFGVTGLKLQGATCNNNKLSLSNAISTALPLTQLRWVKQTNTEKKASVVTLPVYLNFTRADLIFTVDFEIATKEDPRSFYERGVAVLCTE
UniProt Q9NTX5: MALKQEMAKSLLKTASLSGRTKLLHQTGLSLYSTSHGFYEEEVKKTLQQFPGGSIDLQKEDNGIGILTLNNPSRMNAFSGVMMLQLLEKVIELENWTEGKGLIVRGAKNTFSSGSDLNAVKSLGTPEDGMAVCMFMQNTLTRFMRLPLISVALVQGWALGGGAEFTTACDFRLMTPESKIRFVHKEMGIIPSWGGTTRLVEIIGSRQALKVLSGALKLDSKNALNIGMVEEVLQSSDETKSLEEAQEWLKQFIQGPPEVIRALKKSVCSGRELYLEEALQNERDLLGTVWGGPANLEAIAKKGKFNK
UniProt P51452: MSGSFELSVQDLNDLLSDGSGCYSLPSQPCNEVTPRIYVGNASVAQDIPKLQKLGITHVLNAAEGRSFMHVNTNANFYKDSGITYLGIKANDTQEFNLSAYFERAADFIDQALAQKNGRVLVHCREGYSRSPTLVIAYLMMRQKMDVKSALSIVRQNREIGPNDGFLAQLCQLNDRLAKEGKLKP
UniProt Q92785, whole entry, looked up: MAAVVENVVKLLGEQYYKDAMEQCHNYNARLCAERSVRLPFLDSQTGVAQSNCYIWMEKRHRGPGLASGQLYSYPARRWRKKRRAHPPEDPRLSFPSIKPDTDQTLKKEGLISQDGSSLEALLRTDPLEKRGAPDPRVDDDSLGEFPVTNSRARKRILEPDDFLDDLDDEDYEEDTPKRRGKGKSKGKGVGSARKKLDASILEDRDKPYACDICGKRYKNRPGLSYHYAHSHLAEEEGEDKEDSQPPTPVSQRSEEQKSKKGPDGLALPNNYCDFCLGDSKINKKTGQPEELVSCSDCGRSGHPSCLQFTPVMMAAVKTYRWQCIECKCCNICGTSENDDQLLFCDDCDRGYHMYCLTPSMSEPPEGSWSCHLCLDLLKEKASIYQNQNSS

Tests used:
Assay in all cases: log2 fold change, soluble protein after heating vs DMSO (PISA); higher = thermal stabilisation; K562 cells, 10 uM, 30 min; active = over 0.2 and 3.5 SD of the protein, either way, in both replicates (recomputed)
[1] = compound: CS(=O)(=O)c1ccc(-c2cnc(N)c(C(=O)Nc3ccccc3)n2)cc1
Procedure, shortened: (§1)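 K562 cells at 2×10^6 cells/mL were treated for 30 min with 10 μM compound, and aliquots were heated for 3 min over 48°C-58°C before pooling. Extraction used PBS with 0.5% NP-40 at 4°C, and soluble protein was the supernatant after 21,000xg for 90 min, measured by TMTpro 16plex LC-MS/MS with channel sums equalised. Thermal stability values, relative to control samples and from duplicates, are log2 fold changes.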

crizotinib = compound: C[C@@H](Oc1cc(-c2cnn(C3CCNCC3)c2)cnc1N)c1c(Cl)ccc(F)c1Cl [crizotinib]
Procedure, shortened: as §1

[2] = compound: C[C@@H]1COCCN1C2=NC(=NC(=C2)C3(CC3)S(=O)(=O)C)C4=C5C=CNC5=CC=C4
Procedure, shortened: as §1

[3] = compound: C[C@H](C1=CC=C(C=C1)C(=O)NC2=C3C=CNC3=NC=C2)N
Procedure, shortened: as §1

duvelisib = compound: C[C@H](Nc1ncnc2nc[nH]c12)c1cc2cccc(Cl)c2c(=O)n1-c1ccccc1 [duvelisib]
Procedure, shortened: as §1

gandotinib = compound: Cc1cc(Nc2cc(CN3CCOCC3)c3nc(C)c(Cc4ccc(Cl)cc4F)n3n2)n[nH]1 [gandotinib]
Procedure, shortened: as §1

tozasertib = compound: Cc1cc(Nc2cc(N3CCN(C)CC3)nc(Sc3ccc(NC(=O)C4CC4)cc3)n2)n[nH]1 [tozasertib]
Procedure, shortened: as §1

[4] = compound: Cc1cc(SCc2sc(-c3ccc(C(F)(F)F)cc3)nc2C)ccc1OCC(=O)O
Procedure, shortened: as §1

doramapimod = compound: Cc1ccc(-n2nc(C(C)(C)C)cc2NC(=O)Nc2ccc(OCCN3CCOCC3)c3ccccc23)cc1 [doramapimod]
Procedure, shortened: as §1

ispinesib = compound: Cc1ccc(C(=O)N(CCCN)[C@@H](c2nc3cc(Cl)ccc3c(=O)n2Cc2ccccc2)C(C)C)cc1 [ispinesib]
Procedure, shortened: as §1

bafetinib = compound: Cc1ccc(NC(=O)c2ccc(CN3CC[C@H](N(C)C)C3)c(C(F)(F)F)c2)cc1Nc1nccc(-c2cncnc2)n1 [bafetinib]
Procedure, shortened: as §1

[5] = compound: Cc1cccc(CC(=O)N2CCc3c2ccc(-c2cn(C)c4ncnc(N)c24)c3F)n1
Procedure, shortened: as §1

nilotinib = compound: Cc1cn(-c2cc(NC(=O)c3ccc(C)c(Nc4nccc(-c5cccnc5)n4)c3)cc(C(F)(F)F)c2)cn1 [nilotinib]
Procedure, shortened: as §1

[6] = compound: Cc1nc(Nc2n[nH]c3c2CN(C(=O)N[C@H](CN(C)C)c2ccccc2)C3(C)C)c2sccc2n1
Procedure, shortened: as §1

dasatinib = compound: Cc1nc(Nc2ncc(C(=O)Nc3c(C)cccc3Cl)s2)cc(N2CCN(CCO)CC2)n1 [dasatinib]
Procedure, shortened: as §1

[7] = compound: Cc1ncc(-c2ccnc(Nc3ccc(S(C)(=O)=O)cc3)n2)n1C(C)C
Procedure, shortened: as §1

[8] = compound: Cn1cc(-c2ccc3c(c2)CCN3C(=O)Cc2cccc(C(F)(F)F)c2)c2c(N)ncnc21
Procedure, shortened: as §1

[9] = compound: Cn1cc(-c2ccc3nnc(C(F)(F)c4ccc5ncccc5c4)n3n2)cn1
Procedure, shortened: as §1

tipifarnib = compound: Cn1cncc1[C@@](N)(c1ccc(Cl)cc1)c1ccc2c(c1)c(-c1cccc(Cl)c1)cc(=O)n2C [tipifarnib]
Procedure, shortened: as §1

mubritinib = compound: FC(F)(F)c1ccc(/C=C/c2nc(COc3ccc(CCCCn4ccnn4)cc3)co2)cc1 [mubritinib]
Procedure, shortened: as §1

Measured: log2 fold change

DNAJC21 isoform 3 (UniProt Q5F1R6)
inactive: [1] -0.056 | crizotinib -0.01 | [2] -0.265 | [3] 0.149 | duvelisib -0.08 | gandotinib 0.009 | tozasertib 0.058 | [4] 0.057 | doramapimod 0.101 | ispinesib -0.073 | bafetinib 0.087 | [5] 0.023 | nilotinib -0.132 | [6] 0.032 | dasatinib -0.008 | [7] 0.034 | [8] -0.056 | [9] -0.004 | tipifarnib 0.069 | mubritinib 0.039

EAF1 (UniProt Q96JC9)
inactive: [1] 0.032 | crizotinib 0.078 | [2] 0.13 | [3] -0.034 | duvelisib 0.093 | gandotinib -0.002 | tozasertib -0.029 | [4] -0.095 | doramapimod 0 | ispinesib -0.005 | bafetinib -0.105 | [5] -0.107 | nilotinib 0.069 | [6] 0.02 | dasatinib 0.038 | [7] 0.041 | [8] -0.058 | [9] -0.025 | tipifarnib 0.077 | mubritinib 0.041

DPY19L4 (UniProt Q7Z388)
inactive: [1] 0.028 | crizotinib -0.076 | [2] -0.003 | [3] 0.026 | duvelisib 0.003 | gandotinib -0.011 | tozasertib -0.015 | [4] -0.181 | doramapimod -0.089 | ispinesib -0.053 | bafetinib -0.169 | [5] -0.035 | nilotinib 0.205 | [6] 0.109 | dasatinib -0.369 | [7] -0.099 | [8] -0.193 | [9] 0.027 | tipifarnib 0.093 | mubritinib 0.036

DNASE2 (UniProt O00115)
inactive: [1] 0.03 | crizotinib -0.059 | [2] 0.022 | [3] -0.006 | duvelisib 0.085 | gandotinib 0.04 | tozasertib 0.005 | [4] 0.013 | doramapimod 0.045 | ispinesib -0.029 | bafetinib -0.126 | [5] -0.022 | nilotinib 0.052 | [6] -0.008 | dasatinib -0.053 | [7] -0.047 | [8] 0.052 | [9] 0.061 | tipifarnib 0.032 | mubritinib 0.041

ECM1 isoform 4 (UniProt Q16610)
inactive: [1] -0.053 | crizotinib 0.028 | [2] 0.005 | [3] -0.014 | duvelisib -0.04 | gandotinib 0.036 | tozasertib 0.045 | [4] -0.005 | doramapimod 0.02 | ispinesib -0.018 | bafetinib -0.01 | [5] -0.023 | nilotinib 0.045 | [6] 0.012 | dasatinib 0.021 | [7] 0.002 | [8] 0.049 | [9] 0.026 | tipifarnib 0.055 | mubritinib -0.046

DYNLL1 (UniProt P63167)
inactive: [1] 0.07 | crizotinib 0.128 | [2] 0.066 | [3] -0.056 | duvelisib 0 | gandotinib 0.074 | tozasertib 0.05 | [4] 0.005 | doramapimod -0.052 | ispinesib 0.104 | bafetinib -0.035 | [5] 0.032 | nilotinib 0.088 | [6] -0.097 | dasatinib 0.01 | [7] 0.025 | [8] 0.135 | [9] 0.13 | tipifarnib -0.026 | mubritinib -0.051

DPY30 (UniProt Q9C005)
inactive: [1] -0.2 | crizotinib 0.141 | [2] 0.011 | [3] -0.326 | duvelisib 0.661 | gandotinib 0.344 | tozasertib 0.047 | [4] -0.088 | doramapimod -0.245 | ispinesib 0.496 | bafetinib -0.16 | [5] -0.284 | nilotinib 0.132 | [6] -0.086 | dasatinib -0.052 | [7] -0.104 | [8] 0.093 | [9] 0.404 | tipifarnib 0.412 | mubritinib -0.035

DNM1L isoform 6 (UniProt O00429)
inactive: [1] 0.041 | crizotinib -0.034 | [2] 0.126 | [3] -0.025 | duvelisib 0.085 | gandotinib 0.006 | tozasertib -0.031 | [4] 0 | doramapimod 0.001 | ispinesib -0.042 | bafetinib -0.076 | [5] -0.023 | nilotinib -0.084 | [6] -0.017 | dasatinib -0.055 | [7] 0.045 | [8] 0.05 | [9] 0.032 | tipifarnib -0.038 | mubritinib -0.001

DNAJC6 isoform 2 (UniProt O75061)
inactive: [1] 0.034 | crizotinib 0.009 | [2] 0.158 | [3] -0.062 | duvelisib 0.082 | gandotinib -0.058 | tozasertib 0.032 | [4] 0.024 | doramapimod -0.072 | ispinesib 0.068 | bafetinib -0.087 | [5] 0.017 | nilotinib -0.047 | [6] -0.002 | dasatinib -0.036 | [7] -0.054 | [8] 0.01 | [9] -0.045 | tipifarnib -0.013 | mubritinib 0.036

DYNC1H1 (UniProt Q14204)
inactive: [1] 0.032 | crizotinib -0.045 | [2] 0.021 | [3] 0.004 | duvelisib 0.012 | gandotinib -0.018 | tozasertib -0.01 | [4] 0.047 | doramapimod -0.002 | ispinesib -0.022 | bafetinib 0.023 | [5] 0.048 | nilotinib -0.007 | [6] 0.045 | dasatinib -0.065 | [7] -0.019 | [8] 0.025 | [9] 0.012 | tipifarnib -0.037 | mubritinib 0.035

DPAGT1 (UniProt Q9H3H5)
inactive: [1] -0.003 | crizotinib 0.072 | [2] -0.024 | [3] -0.193 | duvelisib 0.085 | gandotinib 0.013 | tozasertib 0.06 | [4] -0.1 | doramapimod -0.041 | ispinesib 0.043 | bafetinib -0.004 | [5] -0.046 | nilotinib 0.007 | [6] 0.075 | dasatinib -0.05 | [7] -0.069 | [8] 0.044 | [9] 0.038 | tipifarnib 0.056 | mubritinib 0.043

ECHDC1 (UniProt Q9NTX5)
inactive: [1] 0.013 | crizotinib 0.018 | [2] 0.037 | [3] -0.029 | duvelisib 0.022 | gandotinib 0.086 | tozasertib -0.026 | [4] -0.029 | doramapimod -0.021 | ispinesib 0.055 | bafetinib -0.054 | [5] -0.066 | nilotinib 0.026 | [6] 0.016 | dasatinib 0.053 | [7] -0.005 | [8] 0.004 | [9] 0.048 | tipifarnib 0.041 | mubritinib 0.034

DUSP3 (UniProt P51452)
inactive: [1] 0.056 | crizotinib 0.061 | [2] 0.06 | [3] -0.107 | duvelisib 0.067 | gandotinib -0.064 | tozasertib 0.016 | [4] 0.074 | doramapimod 0.005 | ispinesib 0.045 | bafetinib -0.005 | [5] -0.025 | nilotinib -0.002 | [6] -0.149 | dasatinib -0.054 | [7] 0.018 | [8] 0.047 | [9] -0.001 | tipifarnib -0.038 | mubritinib -0.003

2 successive records from above:
ECHDC1 (UniProt Q9NTX5)
inactive: [1] 0.013 | crizotinib 0.018 | [2] 0.037 | [3] -0.029 | duvelisib 0.022 | gandotinib 0.086 | tozasertib -0.026 | [4] -0.029 | doramapimod -0.021 | ispinesib 0.055 | bafetinib -0.054 | [5] -0.066 | nilotinib 0.026 | [6] 0.016 | dasatinib 0.053 | [7] -0.005 | [8] 0.004 | [9] 0.048 | tipifarnib 0.041 | mubritinib 0.034

DUSP3 (UniProt P51452)
inactive: [1] 0.056 | crizotinib 0.061 | [2] 0.06 | [3] -0.107 | duvelisib 0.067 | gandotinib -0.064 | tozasertib 0.016 | [4] 0.074 | doramapimod 0.005 | ispinesib 0.045 | bafetinib -0.005 | [5] -0.025 | nilotinib -0.002 | [6] -0.149 | dasatinib -0.054 | [7] 0.018 | [8] 0.047 | [9] -0.001 | tipifarnib -0.038 | mubritinib -0.003

Continued.

EDEM1 (UniProt Q92611)
inactive: [1] 0.041 | crizotinib 0.008 | [2] -0.076 | [3] 0.053 | duvelisib 0.104 | gandotinib -0.002 | tozasertib 0.045 | [4] 0.037 | doramapimod 0.026 | ispinesib -0.104 | bafetinib -0.042 | [5] 0.076 | nilotinib -0.014 | [6] -0.054 | dasatinib -0.02 | [7] -0.005 | [8] -0.069 | [9] 0.023 | tipifarnib 0.06 | mubritinib -0.012

DPF2 (UniProt Q92785)
inactive: [1] 0.028 | crizotinib -0.004 | [2] -0.017 | [3] -0.02 | duvelisib -0.056 | gandotinib -0.05 | tozasertib -0.021 | [4] -0.018 | doramapimod 0.013 | ispinesib 0.026 | bafetinib -0.042 | [5] 0.009 | nilotinib 0 | [6] -0.019 | dasatinib 0.054 | [7] -0.09 | [8] 0.007 | [9] -0.014 | tipifarnib 0.05 | mubritinib 0.033

DPP3 (UniProt Q9NY33)
inactive: [1] 0.032 | crizotinib -0.133 | [2] 0.126 | [3] -0.026 | duvelisib 0.037 | gandotinib -0.157 | tozasertib -0.032 | [4] 0 | doramapimod -0.019 | ispinesib -0.044 | bafetinib -0.029 | [5] 0.012 | nilotinib -0.035 | [6] 0.012 | dasatinib -0.095 | [7] -0.056 | [8] 0.068 | [9] 0.034 | tipifarnib -0.097 | mubritinib 0.082
